Values from PubChem BioAssay AID1259254 (NCATS, 2017).

Assay: 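Gene knock-downs that lead to re-replication, shown by excess G2 DNA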 (primary screen)
Cell system: human HCT116 colorectal cancer cells
Knock-down reagent: single siRNA against human genes
Time to read-out: 3 days
Measurement: 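Imaged Hoechst DNA stain sorts each cell into a cycle phase by DNA amount; per plate, G2 fraction set to 0% for non-targeting and 100% for GMNN siRNA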
Direction: G2 robust z-score: higher = more G2 cells, more excess DNA replication
Active means: 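Active siRNAs have a G2 robust z of 5 or more median absolute deviations over the median, which in these data means about 38% or higher of GMNN control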
Shown is one part, drawn at random, of about 59,000 deposited reagents. Over the whole deposit, about 1,550 (2.6%) got an active call. 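G2 share is only a proxy for re-replication; each gene was hit by three separate siRNAs, and active genes were retested.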 Unmarked entries are inactive. The numbers tell different reagents against one gene apart. Further read-outs or replicates are left out here. Not given: the amount of reagent.

Against OR52E4 #1 the deposit lists G2 robust z-score -0.232.
Knock-down of OR52E4 #2 resulted in: G2 robust z-score 2.6.
Knock-down of OR52E4 #3 came out at: G2 robust z-score -0.319.
Depletion of FAM181A #1 resulted in: G2 robust z-score 1.22.
With knock-down of FAM181A #2 the results were G2 robust z-score -0.3.
Knock-down of FAM181A #3 came out at: G2 robust z-score -0.849.
For GUF1 #1, the entry reads G2 robust z-score 1.12.
For GUF1 #2, the values are G2 robust z-score -1.57.
GUF1 #3 scored G2 robust z-score -0.452.
CYB5R5 #1 scored G2 robust z-score -0.111.
Silencing of CYB5R5 #2 came out at: G2 robust z-score -0.937.
Knock-down of CYB5R5 #3 came out at: G2 robust z-score 3.65.

Single entries from above.
CYB5R5 #3, G2 robust z-score: 3.65
For “G2 robust z-score”, FAM181A #3 reads -0.849
For “G2 robust z-score”, GUF1 #3 reads -0.452
Result of GUF1 #1 under “G2 robust z-score”: 1.12
Under “G2 robust z-score”, CYB5R5 #2 shows -0.937

The results go on:
Knock-down of NUDT17 #1 came out at: G2 robust z-score 4.68.
NUDT17 #2 gave G2 robust z-score 1.57.
Depletion of NUDT17 #3 gave: G2 robust z-score 2.06.
For DNAH8 #1, the values are G2 robust z-score -0.0724.
After knock-down of DNAH8 #2 the results were G2 robust z-score 7.11 (active).
DNAH8 #3 showed G2 robust z-score -0.307.
Depletion of GABRA6 #1 resulted in: G2 robust z-score 0.171.
For GABRA6 #2, the values are G2 robust z-score 1.65.
With knock-down of GABRA6 #3 the results were G2 robust z-score 2.92.
Depletion of CSRNP3 #1 resulted in: G2 robust z-score 0.154.
CSRNP3 #2 showed G2 robust z-score 0.311.
CSRNP3 #3 showed G2 robust z-score -0.222.
Silencing of SUSD2 #1 resulted in: G2 robust z-score -0.882.
After knock-down of SUSD2 #2, the screen gave G2 robust z-score 6.57 (active).
Depletion of SUSD2 #3 came out at: G2 robust z-score -0.363.
Against TMEM248 #1 the deposit lists G2 robust z-score -0.326.
TMEM248 #2 showed G2 robust z-score 0.374.
TMEM248 #3 showed G2 robust z-score 0.225.
